Experiment [1] has as its system High fat diet induced obesity model in rat. The experiment can be described thus: High fat diet induced obesity model in rat: serum biochemistry. The experiment is classed as in vivo, Male Wistar Rats. Particulars: HFD-fed rats, 12 weeks, p.o. The procedure:
(§1) Screening anti-obesity effect of synergistic combination or composition/formulation comprising OEA and other natural ingredients using High fat diet induced obesity model in rat. […] To maintain appropriate conditions, temperature and relative humidity were recorded three times daily. During complete experiment, animals were supplied with the standard certified rat pellet feed (manufactured by VRK Nutritional Solutions, Pune) and drinking water treated by the reverse osmosis ad libitum. […] In order to evaluate the anti-obesity effect, forty-eight (48) male rats were screened and divided into eight groups. For a comparative analysis, the groups were divided as follows: normal control, disease control, treatment groups with individual component, reference standard drug and test composition/formulation of the present invention. […] The animals under consideration were examined for a study period of 12 weeks. Animals in group (G1) were given normal pellet diet, wherein the other groups were on high fat diet. After completion of study for 12 weeks, each group was analyzed in terms of the body weight and other evaluating parameters such as serum biochemistry (triglyceride, total cholesterol and low density lipoprotein cholesterol (LDL), analysis of liver homogenates and histopathology of liver. Obesity is essentially due to an excessive accumulation of the fatty tissues which leads to many diseases, not limited to insulin resistance, diabetes, fatty liver disease, coronary artery disease, hypertension and polycystic ovary syndrome. In obese conditions, the level of total cholesterol, triglyceride and LDL-cholesterol reaches beyond the normal ranges in human beings. Similarly, high fat diet model in rat is universally accepted model to test the efficacy of the drug for the treatment of obesity. In the above experimental procedure, obesity was induced by administration of a high fat diet (HFD) for the period of 12 weeks. For comparison, the normal control group animals were given a normal pellet diet, whereas the remaining groups were fed with the HFD. As a routine experiment, all animals' body weights were observed on weekly basis. Further, various serum biochemistry parameters such as Triglyceride, total cholesterol and LDL-cholesterol were analyzed at the end of the 12-week treatment period. In this regard, at the end of study period, all animals were euthanized and the liver was isolated. The liver homogenate of each individual animal was prepared and subjected for determination of the level of total cholesterol and Triglyceride. Further, part of the liver was used for histopathological investigation purpose.

For experiment [2] the test system is unchanged. Put plainly: High fat diet induced obesity model in rat: analysis of liver homogenates. Particulars: liver homogenate, HFD-fed rats, 12 weeks, p.o. In kind it is in vivo, Male Wistar Rats. The procedure: as §1

Consider one compound from US10702487B2, “Pharmaceutical composition for prevention of diet induced obesity” (FRIMLINE PRIVATE LIMITED, priority 2017, dated 2020).

Molecules are shown by their SMILES.

Regarding `CC(C)(CO)[C@@H](O)C(=O)NCCC(=O)NCCSSCCNC(=O)CCNC(=O)[C@H](O)C(C)(C)CO` [Pantethine], in experiment [1] (mean), the LDL stood at 49.17 mg/dL, the “Total Cholesterol” value worked out at 135.54 mg/dL and the Triglyceride is 110.13 mg/dL. In addition, in experiment [1] (versus disease control), the “LDL % Decrease” value stood at 15.19%, the “Total Cholesterol % Decrease” value is 7.95% and the “Triglyceride % Decrease” value is given as 10.30%. Besides, in experiment [2] (mean), the “Total Cholesterol” value was found to be 82.41 mg/dL and the Triglyceride came out at 75.22 mg/dL. In experiment [2] (versus disease control), the “Total Cholesterol % Decrease” value was 8.68% and the “Triglyceride % Decrease” value is 9.38%.
